Results are given in words; binding and its absence hold for the method and conditions named. In cells and extracts the contact can be indirect. Some binding calls cover weakened binding; strength is not graded here. For some of these results: Where a sequence is shown, tags or fusion partners need not be part of it. Blank lines part the entries; values can stand above or below the molecule they belong to.
Experiments:
[1] = biological target: Myc-tagged Notch1 (Notch1Myc-pCS2+, AA 1 to 2184 of mouse Notch1 with 6-fold Myc-tag) (mouse) (UniProt Q01705); assay: co-IP; proteins co-expressed in CHO cells; lysis in 50 mM Tris-HCl pH 7.5, 150 mM NaCl, 1 mM EDTA, 1% NP-40, 1% Triton X-100; IP with anti-Flag, anti-Myc or anti-LFNG antibody and Protein G Ultralink resin overnight at 4°C; washes with 500 mM NaCl buffer; Western blot
[2] = biological target: Flag-tagged DLL3-S286A,T403V (mouse) (UniProt O88516); assay: as above

The chains behind the UniProt entries cited, without tags or fusion partners. Where a name states a change or a piece, a line headed by the entry shows the natural chain unless it says otherwise. A line that says so, or that is headed by a name, gives the form on record, which may keep a tag or linker. Residues count along the entry.
UniProt Q01705, residues 19-2184: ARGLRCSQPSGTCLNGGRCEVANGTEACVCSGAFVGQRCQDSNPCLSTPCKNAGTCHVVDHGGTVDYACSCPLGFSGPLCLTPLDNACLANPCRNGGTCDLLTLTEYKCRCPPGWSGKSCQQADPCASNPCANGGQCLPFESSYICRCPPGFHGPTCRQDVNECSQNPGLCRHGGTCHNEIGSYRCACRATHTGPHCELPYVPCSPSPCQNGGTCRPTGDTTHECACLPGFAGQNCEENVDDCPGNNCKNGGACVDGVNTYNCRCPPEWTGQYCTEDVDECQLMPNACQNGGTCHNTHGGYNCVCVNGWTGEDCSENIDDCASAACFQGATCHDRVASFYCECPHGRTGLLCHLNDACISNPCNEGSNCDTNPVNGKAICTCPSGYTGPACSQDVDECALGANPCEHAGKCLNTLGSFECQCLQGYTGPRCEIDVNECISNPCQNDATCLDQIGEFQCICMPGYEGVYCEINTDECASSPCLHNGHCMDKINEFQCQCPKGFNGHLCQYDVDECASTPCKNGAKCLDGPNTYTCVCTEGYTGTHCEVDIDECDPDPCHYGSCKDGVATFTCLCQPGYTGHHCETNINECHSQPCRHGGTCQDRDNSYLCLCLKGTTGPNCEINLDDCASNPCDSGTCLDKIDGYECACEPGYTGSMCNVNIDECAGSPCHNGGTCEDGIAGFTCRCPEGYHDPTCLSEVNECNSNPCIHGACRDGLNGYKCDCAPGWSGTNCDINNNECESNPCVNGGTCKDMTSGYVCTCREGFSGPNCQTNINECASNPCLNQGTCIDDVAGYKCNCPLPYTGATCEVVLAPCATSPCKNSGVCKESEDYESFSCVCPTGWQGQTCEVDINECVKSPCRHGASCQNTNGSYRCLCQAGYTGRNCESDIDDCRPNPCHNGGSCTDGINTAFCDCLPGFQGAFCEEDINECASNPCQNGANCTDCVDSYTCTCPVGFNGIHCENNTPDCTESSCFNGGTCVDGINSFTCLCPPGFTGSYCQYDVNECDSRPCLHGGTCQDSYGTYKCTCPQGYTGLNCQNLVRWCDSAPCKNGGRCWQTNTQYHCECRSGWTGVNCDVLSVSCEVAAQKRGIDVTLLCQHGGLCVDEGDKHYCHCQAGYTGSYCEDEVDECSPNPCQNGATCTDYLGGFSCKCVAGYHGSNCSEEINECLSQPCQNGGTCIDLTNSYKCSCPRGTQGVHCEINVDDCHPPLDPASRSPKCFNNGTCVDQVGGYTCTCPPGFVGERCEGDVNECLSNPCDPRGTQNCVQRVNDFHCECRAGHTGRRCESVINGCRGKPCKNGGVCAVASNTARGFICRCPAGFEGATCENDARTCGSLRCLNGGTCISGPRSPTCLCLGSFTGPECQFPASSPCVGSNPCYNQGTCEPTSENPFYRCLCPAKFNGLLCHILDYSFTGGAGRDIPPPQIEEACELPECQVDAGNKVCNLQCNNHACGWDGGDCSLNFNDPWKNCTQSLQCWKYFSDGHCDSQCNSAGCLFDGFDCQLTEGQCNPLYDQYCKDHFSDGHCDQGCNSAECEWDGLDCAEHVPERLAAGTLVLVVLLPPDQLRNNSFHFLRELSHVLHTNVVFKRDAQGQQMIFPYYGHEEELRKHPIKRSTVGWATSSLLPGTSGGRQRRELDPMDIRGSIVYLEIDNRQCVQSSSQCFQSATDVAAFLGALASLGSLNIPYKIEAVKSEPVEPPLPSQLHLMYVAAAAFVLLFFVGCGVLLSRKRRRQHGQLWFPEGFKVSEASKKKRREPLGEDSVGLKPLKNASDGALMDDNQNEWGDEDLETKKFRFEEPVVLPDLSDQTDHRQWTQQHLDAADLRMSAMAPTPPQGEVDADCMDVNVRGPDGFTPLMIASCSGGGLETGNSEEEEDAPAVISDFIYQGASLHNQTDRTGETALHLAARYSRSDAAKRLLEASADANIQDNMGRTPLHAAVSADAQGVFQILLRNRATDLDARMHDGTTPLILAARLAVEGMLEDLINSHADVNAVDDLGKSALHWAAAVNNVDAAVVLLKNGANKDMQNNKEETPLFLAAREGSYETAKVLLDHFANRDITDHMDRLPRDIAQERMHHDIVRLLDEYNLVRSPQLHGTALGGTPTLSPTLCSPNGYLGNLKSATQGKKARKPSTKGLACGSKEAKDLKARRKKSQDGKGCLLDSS
Flag-tagged DLL3-S286A,T403V (O88516, form named): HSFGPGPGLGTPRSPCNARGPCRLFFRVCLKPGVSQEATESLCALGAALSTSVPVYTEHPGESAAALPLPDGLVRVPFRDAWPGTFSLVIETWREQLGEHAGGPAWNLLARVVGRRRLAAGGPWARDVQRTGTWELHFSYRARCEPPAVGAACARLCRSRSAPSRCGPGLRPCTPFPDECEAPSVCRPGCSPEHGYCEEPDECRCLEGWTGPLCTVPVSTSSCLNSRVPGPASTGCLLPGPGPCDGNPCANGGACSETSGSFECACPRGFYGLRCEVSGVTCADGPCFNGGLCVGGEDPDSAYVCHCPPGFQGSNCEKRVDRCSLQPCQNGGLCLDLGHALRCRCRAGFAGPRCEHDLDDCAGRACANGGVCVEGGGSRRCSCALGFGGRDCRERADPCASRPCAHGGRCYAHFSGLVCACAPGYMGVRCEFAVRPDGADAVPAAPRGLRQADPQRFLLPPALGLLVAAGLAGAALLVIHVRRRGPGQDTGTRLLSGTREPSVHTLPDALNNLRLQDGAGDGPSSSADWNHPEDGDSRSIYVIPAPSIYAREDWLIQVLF
UniProt Q61483, residues 18-722: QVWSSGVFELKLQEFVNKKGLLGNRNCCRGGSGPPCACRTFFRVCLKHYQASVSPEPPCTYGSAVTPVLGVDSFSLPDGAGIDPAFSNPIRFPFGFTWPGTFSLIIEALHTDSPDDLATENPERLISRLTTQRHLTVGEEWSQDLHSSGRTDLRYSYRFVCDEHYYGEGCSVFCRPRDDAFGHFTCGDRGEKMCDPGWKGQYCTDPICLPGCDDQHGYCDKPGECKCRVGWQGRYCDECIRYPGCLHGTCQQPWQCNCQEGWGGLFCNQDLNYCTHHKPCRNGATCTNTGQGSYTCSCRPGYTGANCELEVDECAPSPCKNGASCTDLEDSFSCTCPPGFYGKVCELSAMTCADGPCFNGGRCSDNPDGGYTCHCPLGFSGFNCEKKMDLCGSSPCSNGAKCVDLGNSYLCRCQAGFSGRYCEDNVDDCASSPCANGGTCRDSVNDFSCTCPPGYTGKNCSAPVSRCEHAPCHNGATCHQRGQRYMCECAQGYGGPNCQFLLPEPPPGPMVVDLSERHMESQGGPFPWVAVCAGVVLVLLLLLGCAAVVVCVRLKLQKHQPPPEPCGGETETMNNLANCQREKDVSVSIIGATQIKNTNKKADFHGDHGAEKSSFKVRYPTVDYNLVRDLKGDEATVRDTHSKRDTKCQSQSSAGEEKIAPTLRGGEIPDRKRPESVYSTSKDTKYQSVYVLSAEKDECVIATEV

binding [1]: binds
Molecule: Flag-tagged DLL3-S286A,T403V (from UniProt O88516 33-592)

binding [2]: binds
Molecule: MycHis-tagged DLL1 (from UniProt Q61483 18-722) (ligand)

Second part, the molecule before the results:

Molecule: Myc-tagged Notch1 (Notch1Myc-pCS2+, AA 1 to 2184 of mouse Notch1 with 6-fold Myc-tag) (from UniProt Q01705 19-2184) (receptor)
binding [2]: binds

B1: HA-tagged mouse Lunatic fringe (LFNG) (enzyme, UniProt O09010 1-378)
chain: MLQRCGRRLLLALVGALLACLLVLTADPPPTPMPAERGRRALRSLAGSSGGAPASGSRAAVDPGVLTREVHSLSEYFSLLTRARRDADPPPGVASRQGDGHPRPPAEVLSPRDVFIAVKTTRKFHRARLDLLFETWISRHKEMTFIFTDGEDEALAKLTGNVVLTNCSSAHSRQALSCKMAVEYDRFIESGKKWFCHVDDDNYVNLRALLRLLASYPHTQDVYIGKPSLDRPIQATERISEHKVRPVHFWFATGGAGFCISRGLALKMGPWASGGHFMSTAERIRLPDDCTIGYIVEALLGVPLIRSGLFHSHLENLQQVPTTELHEQVTLSYGMFENKRNAVHIKGPFSVEADPSRFRSVHCHLYPDTPWCPRSAIF
binding [2]: binds

Reference: article PMC4391858
